Test results taken from paper PMC12240075.
These are yes or no findings as the source states them, for the method shown. Binding seen in cells or lysates may run through a third protein. Some binding calls cover weakened binding; strength is not graded here. Where a sequence is shown, tags or fusion partners need not be part of it.

By UniProt entry, the sequences of proteins in these tests, tags left out.
UniProt P63279: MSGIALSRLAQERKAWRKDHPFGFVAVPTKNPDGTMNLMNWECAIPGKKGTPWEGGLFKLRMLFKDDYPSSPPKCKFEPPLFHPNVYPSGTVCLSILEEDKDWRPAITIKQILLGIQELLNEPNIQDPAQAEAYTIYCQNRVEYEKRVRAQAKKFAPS
UniProt P11142: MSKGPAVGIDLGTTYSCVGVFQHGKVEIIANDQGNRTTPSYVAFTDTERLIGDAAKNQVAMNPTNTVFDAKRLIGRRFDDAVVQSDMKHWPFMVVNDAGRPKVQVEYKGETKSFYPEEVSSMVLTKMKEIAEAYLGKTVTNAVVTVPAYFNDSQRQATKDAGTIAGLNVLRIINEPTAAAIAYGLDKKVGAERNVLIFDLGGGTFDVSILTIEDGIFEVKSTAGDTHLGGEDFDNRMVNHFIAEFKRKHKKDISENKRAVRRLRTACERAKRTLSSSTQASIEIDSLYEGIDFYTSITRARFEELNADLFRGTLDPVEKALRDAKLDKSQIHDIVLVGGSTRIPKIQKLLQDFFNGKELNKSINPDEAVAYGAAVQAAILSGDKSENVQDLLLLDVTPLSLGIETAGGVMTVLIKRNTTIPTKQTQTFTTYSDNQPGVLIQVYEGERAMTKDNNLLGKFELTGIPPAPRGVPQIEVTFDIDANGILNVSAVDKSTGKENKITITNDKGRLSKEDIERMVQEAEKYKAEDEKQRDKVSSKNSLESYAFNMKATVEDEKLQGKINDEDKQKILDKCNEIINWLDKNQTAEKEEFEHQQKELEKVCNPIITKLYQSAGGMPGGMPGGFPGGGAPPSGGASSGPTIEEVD

Columns and labels:
[1] = molecular target: T1, HA-OGA-WT (UniProt O60502); test: co-IP; tagged bait overproduced in transfected HEK293T cells, partner endogenous; lysis buffer 200 mM NaCl, 1 mM EDTA, 20 mM Tris (pH 7.5), 0.5% NP-40; for Lamp2a (Fig. 3I, 6I) cells treated with 10 μM CQ for 3 h
T1 sequence: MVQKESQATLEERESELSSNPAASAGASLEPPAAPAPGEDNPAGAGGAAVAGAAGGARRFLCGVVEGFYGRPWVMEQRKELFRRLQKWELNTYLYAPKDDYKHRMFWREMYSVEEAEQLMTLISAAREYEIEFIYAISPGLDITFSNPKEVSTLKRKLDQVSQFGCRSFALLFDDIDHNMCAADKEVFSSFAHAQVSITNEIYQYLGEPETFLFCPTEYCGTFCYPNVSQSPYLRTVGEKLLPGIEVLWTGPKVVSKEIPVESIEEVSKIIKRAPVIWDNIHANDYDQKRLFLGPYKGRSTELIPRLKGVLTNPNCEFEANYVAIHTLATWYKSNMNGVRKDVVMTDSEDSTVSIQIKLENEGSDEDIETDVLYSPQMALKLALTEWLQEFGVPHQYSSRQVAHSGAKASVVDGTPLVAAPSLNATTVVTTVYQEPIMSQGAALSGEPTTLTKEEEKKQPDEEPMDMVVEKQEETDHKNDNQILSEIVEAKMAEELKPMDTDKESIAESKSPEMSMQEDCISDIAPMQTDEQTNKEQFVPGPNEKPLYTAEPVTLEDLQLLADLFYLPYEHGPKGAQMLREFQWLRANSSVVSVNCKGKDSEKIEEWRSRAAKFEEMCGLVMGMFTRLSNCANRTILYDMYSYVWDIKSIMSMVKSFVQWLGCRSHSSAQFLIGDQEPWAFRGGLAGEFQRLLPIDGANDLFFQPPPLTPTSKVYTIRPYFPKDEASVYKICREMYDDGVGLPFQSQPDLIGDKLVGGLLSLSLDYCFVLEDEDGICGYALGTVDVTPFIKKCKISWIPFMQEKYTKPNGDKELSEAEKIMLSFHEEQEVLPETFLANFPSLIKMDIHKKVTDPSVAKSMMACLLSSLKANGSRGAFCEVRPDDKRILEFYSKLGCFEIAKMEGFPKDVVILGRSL

[2] = molecular target: T2, HA-OGA-Q356A/E360A (UniProt O60502); test: as above
T2 sequence: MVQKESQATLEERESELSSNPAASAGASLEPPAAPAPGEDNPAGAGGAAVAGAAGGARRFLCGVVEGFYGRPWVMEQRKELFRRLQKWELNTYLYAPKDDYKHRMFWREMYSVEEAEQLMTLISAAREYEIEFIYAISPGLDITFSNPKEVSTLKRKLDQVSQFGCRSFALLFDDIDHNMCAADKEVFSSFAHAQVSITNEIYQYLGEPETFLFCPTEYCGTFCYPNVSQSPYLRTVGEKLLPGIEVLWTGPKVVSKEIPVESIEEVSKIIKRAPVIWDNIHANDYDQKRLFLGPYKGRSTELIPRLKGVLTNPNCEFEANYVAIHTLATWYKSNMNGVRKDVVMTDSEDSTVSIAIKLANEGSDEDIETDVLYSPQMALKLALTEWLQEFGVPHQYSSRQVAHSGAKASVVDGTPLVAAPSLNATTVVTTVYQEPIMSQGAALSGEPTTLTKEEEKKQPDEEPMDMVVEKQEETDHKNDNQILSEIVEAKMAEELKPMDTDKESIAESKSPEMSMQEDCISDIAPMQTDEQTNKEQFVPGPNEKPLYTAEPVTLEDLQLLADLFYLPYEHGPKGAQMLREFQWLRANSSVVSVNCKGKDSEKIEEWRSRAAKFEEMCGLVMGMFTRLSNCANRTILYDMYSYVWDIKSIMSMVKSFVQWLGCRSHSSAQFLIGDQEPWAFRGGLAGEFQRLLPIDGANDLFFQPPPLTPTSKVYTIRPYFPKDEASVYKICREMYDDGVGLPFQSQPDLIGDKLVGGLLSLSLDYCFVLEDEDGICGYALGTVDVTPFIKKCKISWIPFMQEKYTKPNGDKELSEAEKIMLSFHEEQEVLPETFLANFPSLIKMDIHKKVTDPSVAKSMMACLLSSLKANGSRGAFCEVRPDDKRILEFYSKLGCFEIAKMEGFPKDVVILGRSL

[3] = molecular target: T3, HA-OGA-K358R (UniProt O60502); test: as above
T3 sequence: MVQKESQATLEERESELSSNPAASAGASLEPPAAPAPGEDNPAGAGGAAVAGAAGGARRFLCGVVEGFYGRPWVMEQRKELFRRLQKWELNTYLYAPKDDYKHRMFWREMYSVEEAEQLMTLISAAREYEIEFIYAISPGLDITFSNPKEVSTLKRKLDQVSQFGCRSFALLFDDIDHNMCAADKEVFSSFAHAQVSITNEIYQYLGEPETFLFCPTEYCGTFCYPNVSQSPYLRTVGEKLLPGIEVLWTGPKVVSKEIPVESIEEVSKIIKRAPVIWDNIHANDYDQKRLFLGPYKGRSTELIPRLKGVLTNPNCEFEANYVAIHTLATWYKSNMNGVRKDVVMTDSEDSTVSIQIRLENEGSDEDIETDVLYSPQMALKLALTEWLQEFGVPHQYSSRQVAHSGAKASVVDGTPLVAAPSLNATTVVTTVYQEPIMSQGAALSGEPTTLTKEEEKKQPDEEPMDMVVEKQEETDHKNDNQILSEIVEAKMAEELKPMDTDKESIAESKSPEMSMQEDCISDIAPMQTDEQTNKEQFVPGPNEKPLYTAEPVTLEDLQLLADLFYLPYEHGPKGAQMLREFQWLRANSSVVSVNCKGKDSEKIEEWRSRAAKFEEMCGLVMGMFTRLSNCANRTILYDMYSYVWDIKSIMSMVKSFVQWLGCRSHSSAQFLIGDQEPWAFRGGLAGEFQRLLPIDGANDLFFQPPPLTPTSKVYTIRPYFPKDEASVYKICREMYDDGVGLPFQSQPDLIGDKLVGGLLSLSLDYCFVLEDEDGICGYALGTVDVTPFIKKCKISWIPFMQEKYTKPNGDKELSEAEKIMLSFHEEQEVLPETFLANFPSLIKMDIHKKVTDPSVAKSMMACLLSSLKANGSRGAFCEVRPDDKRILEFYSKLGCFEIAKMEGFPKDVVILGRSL

[4] = molecular target: Flag-Ubc9 (UniProt P63279); test: co-IP; both proteins tagged and overproduced in transfected cells (HEK293T); immunoprecipitation by the tag, immunoblot; lysis buffer 200 mM NaCl, 1 mM EDTA, 20 mM Tris (pH 7.5), 0.5% NP-40
[5] = molecular target: GST-Ubc9 (UniProt P63279); test: pull-down; recombinant GST fusion protein incubated with lysates of transfected cells, GST pull-down, immunoblot; in Fig. 3D also lysates of cells treated with 100 μM GA for 24 h; only the target purified
[6] = molecular target: GST-HSC70 (UniProt P11142); test: as above

Measured: binding

heat shock cognate protein 70 (endogenous) (from UniProt P11142 1-646)
binds: [1] | [2] | [3]

B1: HA-OGA-WT (protein, UniProt O60502 1-916)
chain: MVQKESQATLEERESELSSNPAASAGASLEPPAAPAPGEDNPAGAGGAAVAGAAGGARRFLCGVVEGFYGRPWVMEQRKELFRRLQKWELNTYLYAPKDDYKHRMFWREMYSVEEAEQLMTLISAAREYEIEFIYAISPGLDITFSNPKEVSTLKRKLDQVSQFGCRSFALLFDDIDHNMCAADKEVFSSFAHAQVSITNEIYQYLGEPETFLFCPTEYCGTFCYPNVSQSPYLRTVGEKLLPGIEVLWTGPKVVSKEIPVESIEEVSKIIKRAPVIWDNIHANDYDQKRLFLGPYKGRSTELIPRLKGVLTNPNCEFEANYVAIHTLATWYKSNMNGVRKDVVMTDSEDSTVSIQIKLENEGSDEDIETDVLYSPQMALKLALTEWLQEFGVPHQYSSRQVAHSGAKASVVDGTPLVAAPSLNATTVVTTVYQEPIMSQGAALSGEPTTLTKEEEKKQPDEEPMDMVVEKQEETDHKNDNQILSEIVEAKMAEELKPMDTDKESIAESKSPEMSMQEDCISDIAPMQTDEQTNKEQFVPGPNEKPLYTAEPVTLEDLQLLADLFYLPYEHGPKGAQMLREFQWLRANSSVVSVNCKGKDSEKIEEWRSRAAKFEEMCGLVMGMFTRLSNCANRTILYDMYSYVWDIKSIMSMVKSFVQWLGCRSHSSAQFLIGDQEPWAFRGGLAGEFQRLLPIDGANDLFFQPPPLTPTSKVYTIRPYFPKDEASVYKICREMYDDGVGLPFQSQPDLIGDKLVGGLLSLSLDYCFVLEDEDGICGYALGTVDVTPFIKKCKISWIPFMQEKYTKPNGDKELSEAEKIMLSFHEEQEVLPETFLANFPSLIKMDIHKKVTDPSVAKSMMACLLSSLKANGSRGAFCEVRPDDKRILEFYSKLGCFEIAKMEGFPKDVVILGRSL
binds: [4] | [5] | [6]
